Test results: PubChem BioAssay AID504467 (National Center for Advancing Translational Sciences (NCATS), 2011)
Screen size: about 330,000 compounds; about 7,700 (2.3%) were called active. Inconclusive results, whose numbers are uncertain, are shown with a selection of clear calls. Calls follow the shape of the dose curve; as a rule, active = well fitted inhibition curve with a large enough effect; inconclusive = small, poorly fitted or top-dose-only effect, or effect the other way; inactive = flat fitted curve, though single readings scatter. Where the call is inconclusive, the potency comes from a doubtful curve fit.
% is scaled to controls: 0 for no effect and ±100 for the full control effect; potency is read from the fitted curve at half-maximal effect.

Assay: qHTS screen for small molecules that inhibit ELG1-dependent DNA repair in human embryonic kidney (HEK293T) cells expressing luciferase-tagged ELG1; also: nearly all actives have a fitted effect of over 55% in size
Settings: HEK293T ELG1-luciferase reporter, luminescence, 16 h, DNA damage induced by 5-fluorouridine; activity change, negative = inhibition: at 46.1 µM (top of the series)
Procedure, shortened: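 Cells (2,000 per well) received 5-fluorouridine plus test compound or DMSO and were incubated 16 hr at 37 °C, 5% CO2. Luciferase activity was read by luminescence 30 min after ONE-Glo addition; signal suppression marked inhibition of damage-induced ELG1 function.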
In the case of `Cc1nc2ccc(-c3nc4ccccc4o3)cc2[nH]1`, the Potency is reported as inconclusive: 2.06 µM [activator, partial curve]. For `Cc1cc(C)c2nc(N3CCC(C(=O)N4CCCC4)CC3)sc2c1`, the “activity change, negative = inhibition” value was inactive: -8.68%. For `COc1ccc(OC)c(CN2CCN(C(=O)c3ccc(NS(=O)(=O)c4cccc([N+](=O)[O-])c4)cc3)CC2)c1`, the Potency was inconclusive: 25.9 µM [inhibitor, single point]. In the case of `Cc1ccc(C(=O)Nc2ccc(S(=O)(=O)N3CCc4ccccc4C3)cc2)o1`, the Potency is reported as inconclusive: 25.9 µM [inhibitor, single point]. For `COC(=O)c1ccc(Oc2nc(N(C)C)nc(N3CCOCC3)n2)cc1`, the Potency was inconclusive: 0.259 µM [activator, full curve, poor fit]. In the case of `CCN1CCN(S(=O)(=O)c2cc(OCC(=O)NC3CCCCC3)c(C)cc2Cl)CC1`, the Potency is reported as inconclusive: 3.66 µM [inhibitor, partial curve]. With `COc1cc(OC)cc(-c2nnc(SCC(=O)N(Cc3ccccc3)C(C)(C)C)o2)c1` the Potency was active: 23.1 µM. In the case of `COc1ccc(CNC(=O)C23CN(Cc4ccccc4)CC2C(c2ccc([N+](=O)[O-])cc2)=NO3)cc1` (stereo not drawn), the Potency is reported as inconclusive: 8.2 µM [inhibitor, partial curve]. In the case of `O=C(CCc1ccccc1)NNC(=S)Nc1ccc(F)cc1`, the “activity change, negative = inhibition” value is reported as inactive: -6.93%. For `Cc1ccc(Cc2cc(C)n[nH]c2=O)cc1`, the Potency was inconclusive: 1.46 µM [inhibitor, partial curve, poor fit]. With `COc1cc(CN2CCN(C(=O)c3cccc4ccccc34)CC2)cc(OC)c1O` the “activity change, negative = inhibition” value was inactive: -15%. With `COc1cccc(NC(=O)CSc2nc3ccsc3c(=O)n2-c2ccc(C(=O)O)cc2)c1` the “activity change, negative = inhibition” value was inactive: -9.59%. In the case of `N/C(=N\OC(=O)COc1cc(Cl)c(Cl)cc1Cl)c1ccncc1`, the Potency is reported as inconclusive: 2.59 µM [activator, full curve]. For `CCc1cccc(C)c1NC(=S)NCC1CCN(c2ccc(OC)cc2)C1` (stereo not drawn), the Potency was inconclusive: 20.6 µM [inhibitor, single point]. For `CCCCC(=O)Nc1nc2ccc3nc(C)sc3c2s1`, the Potency was inconclusive: 32.6 µM [inhibitor, partial curve, poor fit]. In the case of `OCc1cn(-c2ccccc2)nc1-c1ccc(Br)cc1`, the Potency is reported as inconclusive: 20.6 µM [activator, partial curve]. With `COc1ccc(/C=C/c2cc[n+](C(=O)Cc3ccccc3)cc2)cc1` the Potency was inconclusive: 18.3 µM [inhibitor, single point]. For `O=C(COc1ccc(/C=N/NC(=O)c2ccccc2O)cc1)Nc1ccccc1`, the Potency was inconclusive: 23.1 µM [activator, single point]. In the case of `O=C(NCCNC(=O)c1ccco1)c1ccc(Cl)c(Cl)c1`, the Potency is reported as inconclusive: 6.51 µM [inhibitor, single point]. With `N#C/C(=C/c1cn(-c2ccccc2)nc1-c1cccc(OCc2ccc(F)cc2)c1)C(=O)NCCCn1ccnc1` the Potency was active: 14.6 µM. In the case of `COc1ccc(Cl)cc1NC(=O)CN(C)C(=O)c1cc(=O)c2ccccc2o1`, the Potency is reported as inconclusive: 12.6 µM [inhibitor, single point]. For `O=C(CC1Sc2ccccc2NC1=O)c1ccc(Br)cc1` (stereo not drawn), the Potency was inconclusive: 16.4 µM [activator, partial curve]. In the case of `CC1(C)CC(NC(=O)C(Cl)(Cl)Cl)CC(C)(C)N1`, the “activity change, negative = inhibition” value is reported as inactive: -1.38%. For `O=C1c2ccccc2C(=O)N1CCOc1ccc(F)cc1`, the Potency was inconclusive: 18.3 µM [activator, partial curve]. With `Cc1cccn2c(=O)c3cc(C(N)=S)c(=N)n(CCCOC(C)C)c3nc12` the Potency was inconclusive: 18.4 µM [inhibitor, single point]. In the case of `Cc1sc2nc(-c3ccc(Br)cc3)oc(=O)c2c1C`, the “activity change, negative = inhibition” value is reported as inactive: 16.9%. In the case of `O=C(Nc1ccc2c(c1)OCO2)N1CCN(c2ncc(C(F)(F)F)cc2Cl)CC1`, the Potency is reported as inconclusive: 29.1 µM [inhibitor, single point]. With `O=C(Nc1cccnc1)c1cccc(S(=O)(=O)N2CCCCC2)c1` the Potency was inconclusive: 18.3 µM [inhibitor, single point]. With `Cc1ccccc1OCC(=O)NCc1ccccc1` the “activity change, negative = inhibition” value was inactive: 27.9%. In the case of `Cc1c(C(=O)N2CCN(C(=O)c3ccco3)CC2)oc2c(Cl)cccc12`, the Potency is reported as inconclusive: 4.11 µM [inhibitor, single point]. For `CCN(CC)CCN1C(=O)C(=O)/C(=C(/O)c2ccc(F)cc2)C1c1ccncc1` (stereo not drawn), the Potency was inconclusive: 11.6 µM [activator, partial curve, poor fit]. For `CC1=NN(c2ccccc2)C(=O)/C1=C\c1cn(CCC#N)nc1-c1ccc(Cl)cc1`, the “activity change, negative = inhibition” value was inactive: -1.51%. With `COc1ccc2oc(=O)c(C(=O)NCc3ccccn3)cc2c1` the Potency was inconclusive: 29.1 µM [activator, single point]. With `CN1C(=O)C(=O)/C(=C(/O)c2ccccc2)C1c1ccc([N+](=O)[O-])cc1` (stereo not drawn) the “activity change, negative = inhibition” value was inactive: 4.68%. With `COc1ccc(OCC(=O)c2c[nH]c3ccccc23)cc1` the Potency was inconclusive: 29.1 µM [activator, single point]. In the case of `CCCOC(=O)c1ccc(NC(=O)c2ccccc2OC)cc1`, the Potency is reported as inconclusive: 13 µM [activator, partial curve]. With `COc1ccc(C2=CC(c3ccc(F)cc3)n3nnnc3N2)cc1` (stereo not drawn) the “activity change, negative = inhibition” value was inactive: 3.74%. With `O=S(=O)(c1ccc(Cl)s1)N1CCN(c2ncccn2)CC1` the “activity change, negative = inhibition” value was inactive: -14%. In the case of `Cc1cc(CC(=O)O)n(C)c1C(=O)c1ccc(Cl)cc1`, the “activity change, negative = inhibition” value is reported as inactive: 4.23%. For `Cc1ccc(-n2cc(CNCCN3CCOC3=O)c(-c3ccc(F)cc3)n2)cc1`, the Potency was inconclusive: 13 µM [activator, partial curve, poor fit]. With `Cn1c(NC(=O)c2cccc(Cn3cc(Cl)cn3)c2)nc2ccccc21` the Potency was inconclusive: 5.17 µM [activator, partial curve]. In the case of `Cc1cc(N)n2ncc(-c3cccc(Br)c3)c2n1`, the Potency is reported as inconclusive: 11.2 µM [activator, partial curve]. For `O=C(CN1CCN(c2cccc(Cl)c2)CC1)Nc1ccc([N+](=O)[O-])cc1C(=O)Nc1ccccc1F`, the Potency was active: 14.6 µM. With `Cc1cc(C)c2c(n1)sc1c(O)cc(=O)[nH]c12` the “activity change, negative = inhibition” value was inactive: 8.16%. For `Cc1ccc(N=C2CCCCCN2C)c(C#N)c1`, the Potency was inconclusive: 2.91 µM [inhibitor, partial curve]. For `COC(=O)c1[nH]c2ccc(Cl)cc2c1NC(=O)Oc1ccccc1`, the Potency was inconclusive: 18.4 µM [activator, partial curve]. With `CC(C)c1ccccc1NC(=O)COc1ccc2c(=O)c(Oc3ccc4ccccc4c3)coc2c1` the Potency was inconclusive: 20.6 µM [inhibitor, partial curve, poor fit]. In the case of `Cc1c(Br)cnn1C(C)C(=O)N1CCN(c2ccc(F)cc2)CC1` (stereo not drawn), the Potency is reported as inconclusive: 16.4 µM [inhibitor, single point]. With `O=C(Nc1cccc2c1CCCC2)c1ccco1` the “activity change, negative = inhibition” value was inactive: -1.73%. For `Cc1[nH]c2ccccc2c1C(=O)COC(=O)c1c(-c2ccccc2Cl)noc1C`, the Potency was inconclusive: 18.4 µM [inhibitor, single point]. In the case of `COC(=O)c1oc2ccc(Br)cc2c1-n1cccc1`, the Potency is reported as inconclusive: 18.4 µM [activator, partial curve, poor fit]. In the case of `CCOC(=O)c1cc(-c2ccccc2)sc1NC(=O)C(C)Sc1nnnn1C` (stereo not drawn), the Potency is reported as active: 18.4 µM. In the case of `COc1ccc(CCNC(=O)C(=O)NCC2CCCN2S(=O)(=O)c2cc(C)ccc2C)cc1` (stereo not drawn), the Potency is reported as inconclusive: 20.6 µM [inhibitor, partial curve, poor fit]. With `Cc1ccc(C(=O)Nc2cccc(C(F)(F)F)c2)cc1Nc1cncnc1` the Potency was inconclusive: 4.61 µM [inhibitor, partial curve]. In the case of `Cc1oc(-c2ccccc2F)nc1CS(=O)CC(=O)NC1CCCCC1` (stereo not drawn), the “activity change, negative = inhibition” value is reported as inactive: 3.2%. With `O=c1c2cc(F)ccc2[nH]c(=S)n1CCCN1CCOCC1` the “activity change, negative = inhibition” value was inactive: 8.5%. In the case of `Cc1cccc(NC(=O)CSc2ccc(-c3ccc4c(c3)OCO4)nn2)c1C`, the Potency is reported as inconclusive: 29.1 µM [activator, single point]. In the case of `COc1cc(CC(=O)N2CCc3ccccc32)cc(OC)c1OC`, the Potency is reported as inconclusive: 11.6 µM [inhibitor, partial curve]. With `Cc1c(Cl)cccc1NC(=O)CSc1nnc(C)n1-c1ccccc1` the Potency was inconclusive: 32.6 µM [inhibitor, partial curve, poor fit]. With `CCOc1ccc(N2C(=O)/C(=C/c3cc(OC)c(OC)c(OC)c3)N(CC(=O)OC)C2=S)cc1` the Potency was inconclusive: 15.8 µM [inhibitor, partial curve, poor fit]. In the case of `COc1ccc(OCC(=O)Nc2c(C(=O)N3CCC(N4CCCCC4)CC3)oc3ccccc23)cc1`, the Potency is reported as inconclusive: 6.51 µM [activator, partial curve, poor fit]. In the case of `COc1ccccc1N(C)S(=O)(=O)c1ccc(C(=O)Nc2ccc(C)cc2C)cc1`, the Potency is reported as inconclusive: 25.9 µM [inhibitor, single point]. For `N#Cc1cnc(Oc2ccc(Cl)cc2)nc1N`, the Potency was inconclusive: 20.6 µM [activator, single point]. For `O=C(Nc1ccccc1N1CCN(C(=O)c2ccc(Cl)cc2)CC1)c1cccc(F)c1`, the Potency was inconclusive: 16.4 µM [inhibitor, single point]. With `Cc1ccc(N2C(=O)CC(SCC(=O)Nc3ccc(S(N)(=O)=O)cc3)C2=O)cc1` (stereo not drawn) the Potency was inconclusive: 11.6 µM [activator, partial curve]. For `COc1ccc(C(=O)Nc2nnc(SCC(=O)NCc3ccco3)s2)cc1OC`, the Potency was inconclusive: 6.51 µM [activator, partial curve]. With `CC1CCCC(C)N1c1nnc(NC(=O)Cn2c(=O)oc3ccccc32)s1` (stereo not drawn) the “activity change, negative = inhibition” value was inactive: 6.16%. In the case of `Cc1ccc(C(CC(=O)O)C2CCOC(C)(C)C2)cc1` (stereo not drawn), the “activity change, negative = inhibition” value is reported as inactive: -4.33%.
